Article PMC5837996
Results are given in words; binding and its absence hold for the method and conditions named. In cells and extracts the contact can be indirect. Some entries that bind do so weakly or less than the wild type.

By UniProt entry, the sequences of proteins in these tests, tags left out.
UniProt P13861: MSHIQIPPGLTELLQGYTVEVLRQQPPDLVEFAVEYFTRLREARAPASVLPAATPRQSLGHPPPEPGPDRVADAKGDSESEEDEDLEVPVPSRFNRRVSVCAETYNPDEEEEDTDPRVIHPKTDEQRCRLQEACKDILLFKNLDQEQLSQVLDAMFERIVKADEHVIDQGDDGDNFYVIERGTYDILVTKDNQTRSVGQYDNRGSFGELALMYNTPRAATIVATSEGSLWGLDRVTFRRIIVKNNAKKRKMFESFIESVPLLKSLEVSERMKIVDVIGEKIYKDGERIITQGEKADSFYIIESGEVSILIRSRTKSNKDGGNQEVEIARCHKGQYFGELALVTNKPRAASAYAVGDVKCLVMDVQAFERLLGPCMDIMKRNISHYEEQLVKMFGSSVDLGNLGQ
UniProt Q99996: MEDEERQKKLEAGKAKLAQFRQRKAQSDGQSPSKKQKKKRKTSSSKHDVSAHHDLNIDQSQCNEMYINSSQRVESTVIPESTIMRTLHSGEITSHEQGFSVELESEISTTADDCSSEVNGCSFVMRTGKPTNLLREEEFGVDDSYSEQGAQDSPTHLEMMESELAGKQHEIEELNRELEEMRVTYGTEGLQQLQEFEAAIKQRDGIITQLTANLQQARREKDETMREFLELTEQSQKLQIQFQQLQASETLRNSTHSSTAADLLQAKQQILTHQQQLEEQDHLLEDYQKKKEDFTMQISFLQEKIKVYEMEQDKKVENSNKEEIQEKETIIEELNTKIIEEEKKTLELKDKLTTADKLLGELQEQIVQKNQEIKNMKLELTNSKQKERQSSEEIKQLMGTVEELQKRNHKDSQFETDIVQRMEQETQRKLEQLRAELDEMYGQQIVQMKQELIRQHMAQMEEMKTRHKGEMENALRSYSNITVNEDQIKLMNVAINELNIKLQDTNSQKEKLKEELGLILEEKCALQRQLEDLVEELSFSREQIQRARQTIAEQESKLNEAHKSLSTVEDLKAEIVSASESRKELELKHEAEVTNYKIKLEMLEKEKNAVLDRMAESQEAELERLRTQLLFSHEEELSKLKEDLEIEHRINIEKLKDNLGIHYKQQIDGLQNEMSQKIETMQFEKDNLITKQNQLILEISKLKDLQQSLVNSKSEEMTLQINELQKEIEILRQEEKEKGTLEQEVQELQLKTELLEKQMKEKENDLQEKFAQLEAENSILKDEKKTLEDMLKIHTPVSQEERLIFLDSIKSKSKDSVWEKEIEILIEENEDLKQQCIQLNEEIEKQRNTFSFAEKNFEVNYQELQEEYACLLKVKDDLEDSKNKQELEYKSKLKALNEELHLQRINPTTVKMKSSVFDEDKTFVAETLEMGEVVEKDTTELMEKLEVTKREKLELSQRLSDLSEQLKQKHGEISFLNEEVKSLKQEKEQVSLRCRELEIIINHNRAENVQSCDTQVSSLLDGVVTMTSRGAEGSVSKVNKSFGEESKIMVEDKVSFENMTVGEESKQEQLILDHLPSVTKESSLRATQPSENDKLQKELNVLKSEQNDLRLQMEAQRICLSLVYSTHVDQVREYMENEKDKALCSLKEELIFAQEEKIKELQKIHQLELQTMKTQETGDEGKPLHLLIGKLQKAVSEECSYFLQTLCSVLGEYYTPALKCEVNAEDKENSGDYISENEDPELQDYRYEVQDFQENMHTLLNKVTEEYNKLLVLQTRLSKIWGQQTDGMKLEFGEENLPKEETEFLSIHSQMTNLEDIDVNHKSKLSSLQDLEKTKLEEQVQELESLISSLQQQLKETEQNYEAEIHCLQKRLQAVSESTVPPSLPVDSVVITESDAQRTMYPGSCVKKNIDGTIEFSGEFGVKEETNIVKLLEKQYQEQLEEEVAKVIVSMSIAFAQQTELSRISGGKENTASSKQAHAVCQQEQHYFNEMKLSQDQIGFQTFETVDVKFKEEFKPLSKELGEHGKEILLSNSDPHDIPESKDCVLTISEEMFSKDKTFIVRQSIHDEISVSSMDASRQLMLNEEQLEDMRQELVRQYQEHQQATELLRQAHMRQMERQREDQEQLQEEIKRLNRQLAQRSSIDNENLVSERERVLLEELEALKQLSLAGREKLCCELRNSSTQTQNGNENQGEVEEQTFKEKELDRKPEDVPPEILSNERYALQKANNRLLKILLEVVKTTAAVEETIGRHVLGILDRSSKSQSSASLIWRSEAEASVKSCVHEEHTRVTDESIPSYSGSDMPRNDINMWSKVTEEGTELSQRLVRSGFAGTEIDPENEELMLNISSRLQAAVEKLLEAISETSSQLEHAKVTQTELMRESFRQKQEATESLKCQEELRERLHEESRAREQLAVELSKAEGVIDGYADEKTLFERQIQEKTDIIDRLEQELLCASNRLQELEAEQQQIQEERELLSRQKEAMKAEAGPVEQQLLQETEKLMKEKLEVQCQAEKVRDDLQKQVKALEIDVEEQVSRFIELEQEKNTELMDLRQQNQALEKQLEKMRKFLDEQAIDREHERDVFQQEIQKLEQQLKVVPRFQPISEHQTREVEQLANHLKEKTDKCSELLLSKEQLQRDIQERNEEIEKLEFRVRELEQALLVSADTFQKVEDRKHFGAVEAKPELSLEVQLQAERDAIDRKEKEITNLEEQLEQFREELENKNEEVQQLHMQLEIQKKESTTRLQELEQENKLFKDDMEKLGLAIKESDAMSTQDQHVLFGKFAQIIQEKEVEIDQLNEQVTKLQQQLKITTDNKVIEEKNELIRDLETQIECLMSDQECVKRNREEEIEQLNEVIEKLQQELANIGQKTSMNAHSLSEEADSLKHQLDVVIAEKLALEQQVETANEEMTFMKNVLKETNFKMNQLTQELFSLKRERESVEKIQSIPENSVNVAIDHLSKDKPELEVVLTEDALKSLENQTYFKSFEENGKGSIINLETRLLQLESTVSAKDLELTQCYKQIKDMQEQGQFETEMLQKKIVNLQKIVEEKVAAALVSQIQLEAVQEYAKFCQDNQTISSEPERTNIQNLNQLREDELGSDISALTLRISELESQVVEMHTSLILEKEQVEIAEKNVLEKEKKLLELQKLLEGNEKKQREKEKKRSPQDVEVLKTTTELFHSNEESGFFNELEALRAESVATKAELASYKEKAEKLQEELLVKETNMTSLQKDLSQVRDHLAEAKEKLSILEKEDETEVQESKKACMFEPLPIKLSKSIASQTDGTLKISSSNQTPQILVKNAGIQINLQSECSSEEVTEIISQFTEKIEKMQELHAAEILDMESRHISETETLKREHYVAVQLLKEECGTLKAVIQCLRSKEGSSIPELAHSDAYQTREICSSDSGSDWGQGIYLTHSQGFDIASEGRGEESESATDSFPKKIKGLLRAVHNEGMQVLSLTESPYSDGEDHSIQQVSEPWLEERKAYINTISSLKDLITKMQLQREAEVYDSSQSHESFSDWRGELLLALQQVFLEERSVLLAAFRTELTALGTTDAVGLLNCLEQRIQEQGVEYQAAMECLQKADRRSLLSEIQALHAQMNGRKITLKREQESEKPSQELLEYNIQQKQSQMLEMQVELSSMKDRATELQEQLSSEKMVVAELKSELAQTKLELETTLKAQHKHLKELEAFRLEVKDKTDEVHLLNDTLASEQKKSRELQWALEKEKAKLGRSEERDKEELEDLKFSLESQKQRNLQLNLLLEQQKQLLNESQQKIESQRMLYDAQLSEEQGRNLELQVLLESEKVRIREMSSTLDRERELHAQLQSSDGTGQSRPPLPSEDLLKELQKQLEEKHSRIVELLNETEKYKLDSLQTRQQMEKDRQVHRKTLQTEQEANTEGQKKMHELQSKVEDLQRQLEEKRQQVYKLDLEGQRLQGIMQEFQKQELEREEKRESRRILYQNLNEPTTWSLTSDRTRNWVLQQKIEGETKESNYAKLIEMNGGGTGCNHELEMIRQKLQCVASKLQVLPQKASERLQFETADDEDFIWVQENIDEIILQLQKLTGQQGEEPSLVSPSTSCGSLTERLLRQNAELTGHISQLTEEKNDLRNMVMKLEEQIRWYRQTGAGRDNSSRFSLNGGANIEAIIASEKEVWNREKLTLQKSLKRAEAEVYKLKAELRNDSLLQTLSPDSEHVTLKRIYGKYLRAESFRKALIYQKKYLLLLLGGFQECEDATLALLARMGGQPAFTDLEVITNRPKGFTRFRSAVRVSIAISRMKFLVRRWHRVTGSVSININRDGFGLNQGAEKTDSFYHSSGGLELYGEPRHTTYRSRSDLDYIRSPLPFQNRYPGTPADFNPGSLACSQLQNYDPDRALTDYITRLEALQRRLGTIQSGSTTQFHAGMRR

Target: regulatory subunit of protein kinase A (PKARIIα) (human (endogenous in HuT78)) (UniProt P13861)
Experiment: co-IP; endogenous proteins; lysates of HuT78 T-cells, unstimulated or stimulated on rICAM-1 (1 h), control or CG-NAP knockdown (GapmeR); immunoprecipitated overnight at 4°C with 2 µg anti-PKARIIα antibody or control IgG, protein A/G plus agarose; washed five times (20 mM HEPES pH 7.4, 0.1% Triton X-100, 130 mM NaCl, 10% glycerol); Western blot

binding: binds
Substance: Centrosome- and Golgi-localized protein kinase N-associated protein (CG-NAP) (from UniProt Q99996 1-3907)
